PubChem BioAssay AID1259308 – NCATS, 2017
The whole screen tested about 59,000 reagents; this is a part drawn at random. Over the whole deposit, about 1,510 (2.6%) got an active call. 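Calls use total luciferase alone and ignore viability, so some active siRNAs may act by altering cell number.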 Further read-outs or replicates are left out here.

Assay: 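Candidate targets for better recombinant protein yield in mammalian cells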 (primary screen)
Cell system: human HEK293 embryonic kidney cells stably expressing firefly luciferase (HEK-CMV-Luc2-Hygro)
Reagent: single siRNA against human genes, 0.8 pmol siRNA per well
Timing: 72 h
Detection: 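Reporter luminescence and viable-cell signal on separate replicate plates, given as percent of non-targeting control and median/MAD z-scores, plus per-cell luciferase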
Direction: total luciferase, z-score: higher = more reporter protein produced
Call rule: 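An siRNA counts as active if its total luciferase robust z-score exceeds 3; genes with two or more such siRNAs out of three were retested with fresh siRNAs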
Calls: active = raised luciferase; inactive = no rise

ARHGAP17 (Rho GTPase activating protein 17) [SID160742977]: total luciferase, z-score = 1.13; activity call = inactive
ARHGAP17 (Rho GTPase activating protein 17) [SID160742978]: total luciferase, z-score = -1.25; activity call = inactive
ARHGAP17 (Rho GTPase activating protein 17) [SID160742979]: total luciferase, z-score = 0.527; activity call = inactive
UTP20 (UTP20 small subunit processome component) [SID160738757]: total luciferase, z-score = -1.78; activity call = inactive
UTP20 (UTP20 small subunit processome component) [SID160738758]: total luciferase, z-score = -1.65; activity call = inactive
UTP20 (UTP20 small subunit processome component) [SID160738759]: total luciferase, z-score = -1.56; activity call = inactive
RHOJ (ras homolog family member J) [SID160745917]: total luciferase, z-score = 1.83; activity call = inactive
RHOJ (ras homolog family member J) [SID160745918]: total luciferase, z-score = 1.66; activity call = inactive
RHOJ (ras homolog family member J) [SID160745919]: total luciferase, z-score = 0.403; activity call = inactive
HSFX1 (heat shock transcription factor family, X-linked 1) [SID160740764]: total luciferase, z-score = 0.126; activity call = inactive
HSFX1 (heat shock transcription factor family, X-linked 1) [SID160740765]: total luciferase, z-score = -2.49; activity call = inactive
HSFX1 (heat shock transcription factor family, X-linked 1) [SID160740766]: total luciferase, z-score = -1.85; activity call = inactive
CXorf66 (chromosome X open reading frame 66) [SID160764984]: total luciferase, z-score = 0.877; activity call = inactive
CXorf66 (chromosome X open reading frame 66) [SID160764985]: total luciferase, z-score = 1.62; activity call = inactive
CXorf66 (chromosome X open reading frame 66) [SID160764986]: total luciferase, z-score = 0.397; activity call = inactive
RAB14 (RAB14, member RAS oncogene family) [SID160740988]: total luciferase, z-score = -1.08; activity call = inactive
RAB14 (RAB14, member RAS oncogene family) [SID160740989]: total luciferase, z-score = -0.527; activity call = inactive
RAB14 (RAB14, member RAS oncogene family) [SID160740990]: total luciferase, z-score = 0.00968; activity call = inactive
AMIGO1 (adhesion molecule with Ig like domain 1) [SID160746016]: total luciferase, z-score = 2.4; activity call = inactive
AMIGO1 (adhesion molecule with Ig like domain 1) [SID160746017]: total luciferase, z-score = 1.41; activity call = inactive
AMIGO1 (adhesion molecule with Ig like domain 1) [SID160746018]: total luciferase, z-score = 0.479; activity call = inactive

2 consecutive reagents already listed:
RAB14 (RAB14, member RAS oncogene family) [SID160740988]: total luciferase, z-score = -1.08; activity call = inactive
RAB14 (RAB14, member RAS oncogene family) [SID160740989]: total luciferase, z-score = -0.527; activity call = inactive
